Results taken from the supplement of paper PMC10849652.
This is one part of the list.

Protein sequences, listed by entry. Tags and fused reporters are not part of them. Lines headed by an entry give the natural chain unless they say otherwise; changes in a name come on top.
UniProt Q92913: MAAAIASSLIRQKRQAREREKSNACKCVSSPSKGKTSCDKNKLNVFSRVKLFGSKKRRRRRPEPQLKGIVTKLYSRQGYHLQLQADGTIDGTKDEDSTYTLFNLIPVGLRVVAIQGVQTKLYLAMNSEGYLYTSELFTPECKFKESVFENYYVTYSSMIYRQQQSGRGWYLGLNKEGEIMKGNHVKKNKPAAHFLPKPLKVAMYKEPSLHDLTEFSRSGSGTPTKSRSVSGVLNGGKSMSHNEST
UniProt Q9NW38: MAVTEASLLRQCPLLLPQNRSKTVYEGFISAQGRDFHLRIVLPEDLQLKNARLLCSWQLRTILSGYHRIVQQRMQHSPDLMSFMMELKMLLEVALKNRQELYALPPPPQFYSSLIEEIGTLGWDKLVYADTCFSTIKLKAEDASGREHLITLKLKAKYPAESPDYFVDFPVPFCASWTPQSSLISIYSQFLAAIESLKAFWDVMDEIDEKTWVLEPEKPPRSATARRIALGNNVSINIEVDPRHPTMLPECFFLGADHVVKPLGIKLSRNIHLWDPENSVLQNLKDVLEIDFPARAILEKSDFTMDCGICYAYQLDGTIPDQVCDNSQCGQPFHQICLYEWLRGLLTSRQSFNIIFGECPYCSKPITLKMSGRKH
UniProt Q9H9S5: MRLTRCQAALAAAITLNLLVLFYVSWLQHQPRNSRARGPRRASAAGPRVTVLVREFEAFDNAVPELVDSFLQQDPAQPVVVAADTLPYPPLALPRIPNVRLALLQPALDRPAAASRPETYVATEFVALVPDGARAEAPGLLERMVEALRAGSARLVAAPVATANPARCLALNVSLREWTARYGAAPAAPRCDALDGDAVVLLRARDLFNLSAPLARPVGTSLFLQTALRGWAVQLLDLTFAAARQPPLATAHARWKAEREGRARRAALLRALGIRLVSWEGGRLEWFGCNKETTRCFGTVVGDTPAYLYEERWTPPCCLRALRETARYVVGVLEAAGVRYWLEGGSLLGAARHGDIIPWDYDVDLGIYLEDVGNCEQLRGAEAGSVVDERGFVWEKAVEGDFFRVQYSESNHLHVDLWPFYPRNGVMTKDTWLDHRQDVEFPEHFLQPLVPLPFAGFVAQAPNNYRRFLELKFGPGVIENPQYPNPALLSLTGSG
UniProt Q9NYQ8: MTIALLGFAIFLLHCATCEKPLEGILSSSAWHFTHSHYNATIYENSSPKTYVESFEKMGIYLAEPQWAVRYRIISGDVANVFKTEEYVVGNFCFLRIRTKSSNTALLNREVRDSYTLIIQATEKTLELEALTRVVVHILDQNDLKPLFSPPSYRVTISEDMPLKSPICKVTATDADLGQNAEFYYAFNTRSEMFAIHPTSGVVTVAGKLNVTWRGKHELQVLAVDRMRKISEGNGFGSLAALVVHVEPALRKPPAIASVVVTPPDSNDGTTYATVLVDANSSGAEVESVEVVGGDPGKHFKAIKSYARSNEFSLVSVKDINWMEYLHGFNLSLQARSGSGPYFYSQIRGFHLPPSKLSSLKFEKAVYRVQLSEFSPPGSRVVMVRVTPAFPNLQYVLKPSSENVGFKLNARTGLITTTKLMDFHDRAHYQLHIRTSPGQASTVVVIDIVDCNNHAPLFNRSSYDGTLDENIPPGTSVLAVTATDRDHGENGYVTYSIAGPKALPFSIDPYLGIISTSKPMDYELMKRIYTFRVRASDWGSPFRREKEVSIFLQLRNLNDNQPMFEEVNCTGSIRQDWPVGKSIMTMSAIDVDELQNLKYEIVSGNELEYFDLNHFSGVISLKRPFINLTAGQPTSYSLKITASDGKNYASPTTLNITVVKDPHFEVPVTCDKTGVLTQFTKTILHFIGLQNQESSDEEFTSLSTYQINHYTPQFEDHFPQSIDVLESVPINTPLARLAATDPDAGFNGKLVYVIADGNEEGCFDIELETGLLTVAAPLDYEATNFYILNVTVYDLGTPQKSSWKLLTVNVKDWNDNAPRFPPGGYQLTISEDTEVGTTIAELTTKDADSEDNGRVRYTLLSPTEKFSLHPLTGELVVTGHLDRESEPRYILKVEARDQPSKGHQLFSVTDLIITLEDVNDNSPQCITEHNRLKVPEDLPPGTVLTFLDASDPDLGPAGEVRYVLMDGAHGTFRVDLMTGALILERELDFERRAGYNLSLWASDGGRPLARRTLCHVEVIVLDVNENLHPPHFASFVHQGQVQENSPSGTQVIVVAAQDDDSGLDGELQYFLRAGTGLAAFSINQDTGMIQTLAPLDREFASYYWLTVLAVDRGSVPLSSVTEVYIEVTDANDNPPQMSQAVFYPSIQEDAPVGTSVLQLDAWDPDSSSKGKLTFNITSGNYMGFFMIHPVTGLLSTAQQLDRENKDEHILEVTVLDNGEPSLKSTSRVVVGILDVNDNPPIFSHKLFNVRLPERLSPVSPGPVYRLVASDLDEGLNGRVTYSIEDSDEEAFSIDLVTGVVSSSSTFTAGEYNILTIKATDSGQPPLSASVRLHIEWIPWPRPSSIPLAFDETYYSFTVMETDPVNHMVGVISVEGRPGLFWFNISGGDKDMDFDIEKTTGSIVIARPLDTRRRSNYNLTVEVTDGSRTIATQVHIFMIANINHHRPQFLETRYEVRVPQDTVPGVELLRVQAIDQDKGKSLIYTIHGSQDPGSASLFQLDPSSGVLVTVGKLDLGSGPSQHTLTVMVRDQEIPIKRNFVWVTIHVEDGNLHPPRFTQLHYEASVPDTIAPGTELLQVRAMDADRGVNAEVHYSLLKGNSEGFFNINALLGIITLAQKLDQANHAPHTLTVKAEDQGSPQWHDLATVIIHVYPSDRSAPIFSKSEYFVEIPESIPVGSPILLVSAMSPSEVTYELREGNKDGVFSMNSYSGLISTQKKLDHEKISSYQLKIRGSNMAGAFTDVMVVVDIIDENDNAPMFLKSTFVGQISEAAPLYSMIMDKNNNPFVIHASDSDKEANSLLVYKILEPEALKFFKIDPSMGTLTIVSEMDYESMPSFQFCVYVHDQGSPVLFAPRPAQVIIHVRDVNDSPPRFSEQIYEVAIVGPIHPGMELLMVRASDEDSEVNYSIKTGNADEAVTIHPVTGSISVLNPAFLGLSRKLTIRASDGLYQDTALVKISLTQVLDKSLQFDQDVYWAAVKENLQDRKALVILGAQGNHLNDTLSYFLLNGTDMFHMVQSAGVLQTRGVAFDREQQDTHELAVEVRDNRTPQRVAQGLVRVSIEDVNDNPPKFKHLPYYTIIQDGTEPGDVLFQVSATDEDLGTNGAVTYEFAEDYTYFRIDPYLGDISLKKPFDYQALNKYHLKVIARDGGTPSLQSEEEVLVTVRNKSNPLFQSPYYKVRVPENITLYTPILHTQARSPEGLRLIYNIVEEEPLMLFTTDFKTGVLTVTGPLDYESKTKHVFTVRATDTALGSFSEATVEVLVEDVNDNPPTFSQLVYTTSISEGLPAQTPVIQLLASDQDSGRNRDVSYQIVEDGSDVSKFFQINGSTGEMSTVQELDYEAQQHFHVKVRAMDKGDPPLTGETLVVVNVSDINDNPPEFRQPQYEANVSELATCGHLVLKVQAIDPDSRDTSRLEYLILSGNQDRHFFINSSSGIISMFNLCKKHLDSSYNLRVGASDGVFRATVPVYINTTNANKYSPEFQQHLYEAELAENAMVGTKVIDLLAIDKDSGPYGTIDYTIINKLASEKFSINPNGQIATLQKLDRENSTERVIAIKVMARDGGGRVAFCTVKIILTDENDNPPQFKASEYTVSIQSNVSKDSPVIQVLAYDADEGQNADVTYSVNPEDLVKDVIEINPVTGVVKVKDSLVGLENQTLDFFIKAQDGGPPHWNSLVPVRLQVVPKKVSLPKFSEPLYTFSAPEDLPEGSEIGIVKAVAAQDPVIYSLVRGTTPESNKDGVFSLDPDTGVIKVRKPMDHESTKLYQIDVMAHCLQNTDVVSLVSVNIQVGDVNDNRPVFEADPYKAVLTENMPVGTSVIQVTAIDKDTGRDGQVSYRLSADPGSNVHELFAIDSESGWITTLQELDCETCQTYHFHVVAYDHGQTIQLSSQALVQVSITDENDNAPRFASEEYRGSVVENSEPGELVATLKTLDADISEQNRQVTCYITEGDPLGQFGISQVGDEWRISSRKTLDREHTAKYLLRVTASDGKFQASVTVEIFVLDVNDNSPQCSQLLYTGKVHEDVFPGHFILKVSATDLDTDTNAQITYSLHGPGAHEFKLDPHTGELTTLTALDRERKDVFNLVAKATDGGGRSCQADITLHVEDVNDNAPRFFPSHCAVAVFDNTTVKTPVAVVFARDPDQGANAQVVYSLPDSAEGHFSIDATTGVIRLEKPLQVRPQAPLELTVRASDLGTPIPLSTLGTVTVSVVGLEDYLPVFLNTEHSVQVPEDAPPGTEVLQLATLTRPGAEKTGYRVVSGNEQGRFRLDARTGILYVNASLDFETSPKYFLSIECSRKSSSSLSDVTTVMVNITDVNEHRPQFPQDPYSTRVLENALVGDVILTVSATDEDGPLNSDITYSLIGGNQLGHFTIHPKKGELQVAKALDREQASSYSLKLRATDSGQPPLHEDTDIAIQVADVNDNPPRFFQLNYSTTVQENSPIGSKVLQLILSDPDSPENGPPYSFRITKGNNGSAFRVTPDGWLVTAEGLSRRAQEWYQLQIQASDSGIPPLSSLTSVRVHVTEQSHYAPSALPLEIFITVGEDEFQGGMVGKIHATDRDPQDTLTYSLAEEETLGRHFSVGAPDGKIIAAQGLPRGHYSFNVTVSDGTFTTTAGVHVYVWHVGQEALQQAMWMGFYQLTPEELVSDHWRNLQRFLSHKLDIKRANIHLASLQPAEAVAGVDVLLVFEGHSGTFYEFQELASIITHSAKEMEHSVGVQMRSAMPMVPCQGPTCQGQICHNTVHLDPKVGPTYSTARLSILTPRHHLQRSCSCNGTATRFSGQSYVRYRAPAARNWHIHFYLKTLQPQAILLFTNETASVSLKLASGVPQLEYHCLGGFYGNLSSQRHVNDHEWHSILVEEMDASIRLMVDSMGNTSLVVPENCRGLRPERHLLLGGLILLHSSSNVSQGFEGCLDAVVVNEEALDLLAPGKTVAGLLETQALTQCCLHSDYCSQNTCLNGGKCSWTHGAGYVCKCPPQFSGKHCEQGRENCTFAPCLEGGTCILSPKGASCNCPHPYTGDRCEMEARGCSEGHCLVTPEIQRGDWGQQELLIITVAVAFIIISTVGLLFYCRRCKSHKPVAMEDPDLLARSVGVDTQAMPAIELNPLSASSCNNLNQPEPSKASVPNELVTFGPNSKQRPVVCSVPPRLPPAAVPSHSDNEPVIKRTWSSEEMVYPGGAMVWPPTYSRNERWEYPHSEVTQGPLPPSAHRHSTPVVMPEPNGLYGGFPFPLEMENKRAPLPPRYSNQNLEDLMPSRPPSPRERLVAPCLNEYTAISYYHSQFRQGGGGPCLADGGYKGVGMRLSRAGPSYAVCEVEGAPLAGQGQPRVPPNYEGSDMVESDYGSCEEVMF
UniProt Q53R41: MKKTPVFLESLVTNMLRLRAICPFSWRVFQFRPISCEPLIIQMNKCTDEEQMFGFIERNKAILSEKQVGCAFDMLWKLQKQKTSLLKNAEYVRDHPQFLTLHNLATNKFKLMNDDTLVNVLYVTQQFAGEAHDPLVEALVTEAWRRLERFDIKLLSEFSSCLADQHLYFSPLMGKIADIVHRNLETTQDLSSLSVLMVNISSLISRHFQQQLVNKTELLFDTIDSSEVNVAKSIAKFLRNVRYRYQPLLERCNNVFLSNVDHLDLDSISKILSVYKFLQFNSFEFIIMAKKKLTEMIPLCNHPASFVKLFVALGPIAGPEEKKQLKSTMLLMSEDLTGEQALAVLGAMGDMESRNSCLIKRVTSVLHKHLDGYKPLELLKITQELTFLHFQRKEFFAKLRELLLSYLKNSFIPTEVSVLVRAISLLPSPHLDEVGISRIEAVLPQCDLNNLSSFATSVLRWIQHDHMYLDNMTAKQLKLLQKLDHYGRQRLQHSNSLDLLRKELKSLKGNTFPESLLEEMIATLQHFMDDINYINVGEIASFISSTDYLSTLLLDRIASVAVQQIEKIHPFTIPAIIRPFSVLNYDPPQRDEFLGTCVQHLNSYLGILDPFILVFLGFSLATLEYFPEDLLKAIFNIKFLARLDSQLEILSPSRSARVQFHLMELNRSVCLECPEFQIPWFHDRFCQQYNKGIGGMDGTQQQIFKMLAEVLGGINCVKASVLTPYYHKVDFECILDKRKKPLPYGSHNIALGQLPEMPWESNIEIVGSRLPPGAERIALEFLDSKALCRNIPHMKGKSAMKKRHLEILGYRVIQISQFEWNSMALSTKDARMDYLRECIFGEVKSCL
UniProt Q9H4M3: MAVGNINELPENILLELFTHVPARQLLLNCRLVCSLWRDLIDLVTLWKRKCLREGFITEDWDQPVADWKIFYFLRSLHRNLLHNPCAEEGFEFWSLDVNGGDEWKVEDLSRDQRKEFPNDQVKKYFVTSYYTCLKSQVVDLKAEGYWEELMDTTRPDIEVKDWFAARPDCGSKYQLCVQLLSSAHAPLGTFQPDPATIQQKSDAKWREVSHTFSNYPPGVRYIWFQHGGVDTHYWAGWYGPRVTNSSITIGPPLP

Tests used:
Assay in all cases: log2 fold change, soluble protein after heating vs DMSO (PISA); higher = thermal stabilisation; K562 lysate, 10 uM; active = over 0.2 and 3.5 SD of the protein, either way, in both replicates (recomputed)
[1] = compound: C/C(=N\NC(=O)C1=CC(=CC=C1)S(=O)(=O)N2CCOCC2)/C3=C(C=CC(=C3)Cl)O
Summary of the method: (§1)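 Soluble protein was defined as the supernatant remaining after 21,000xg for 90 min, following pooling of heated aliquots and adjustment to 0.5% NP-40 at 4°C. Before that, crude K562 extract at 1 mg/mL protein in PBS pH 7.4 with 1 mM MgCl2 was treated with 10 μM compound for 30 min and heated for 3 min across 48°C-58°C. Quantification used TMTpro 16plex LC-MS/MS with channel sums equalised, and values are log-two fold changes in thermal stability relative to solvent controls from duplicates.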

[2] = compound: C1=CC2=C(C=CC(=C2)/C=C\3/C(=O)NC(=NCC4=CC=CS4)S3)N=C1
Summary of the method: as §1

[3] = compound: C1=CC2=NC=CN=C2C=C1/C=C/3\C(=O)NC(=O)S3
Summary of the method: as §1

[4] = compound: C1=CC=C(C=C1)C2=NC(=C(N2)C3=CC=NC=C3)C4=CC(=C(C=C4)Cl)O
Summary of the method: as §1

[5] = compound: C1=CC=C2C(=C1)C3=NNC4=CC=CC(=C43)C2=O
Summary of the method: as §1

[6] = compound: C1CCN(C1)C(=O)NC2=CC=CC(=C2)NC3=NC=C(C(=N3)NCCC4=CN=CN4)Br
Summary of the method: as §1

[7] = compound: C1CN(CCC1(CC2=CC=C(C=C2)Cl)N)C3=NC=NC4=C3C=CN4
Summary of the method: as §1

IRAK-1-4 Inhibitor I = compound: C1COCCN1CCN2C3=CC=CC=C3N=C2NC(=O)C4=CC(=CC=C4)[N+](=O)[O-] [IRAK-1-4 Inhibitor I]
Summary of the method: as §1

ibrutinib = compound: C=CC(=O)N1CCC[C@@H](n2nc(-c3ccc(Oc4ccccc4)cc3)c3c(N)ncnc32)C1 [ibrutinib]
Summary of the method: as §1

ralimetinib = compound: CC(C)(C)Cn1c(N)nc2ccc(-c3[nH]c(C(C)(C)C)nc3-c3ccc(F)cc3)nc21 [ralimetinib]
Summary of the method: as §1

[8] = compound: CC(C)(O)CC(=O)NCCn1ccc2ncnc(Nc3ccc(Oc4cccc(C(F)(F)F)c4)c(Cl)c3)c21
Summary of the method: as §1

[9] = compound: CC1=C(C2=C(C=C1)C(=O)C3=CC=CC=C3N2CCCN)C
Summary of the method: as §1

[10] = compound: CC1=C(C=C(C=C1)NC(=O)C2=CC(=CC=C2)C(C)(C)C#N)NC3=CC4=C(C=C3)N=CN(C4=O)C
Summary of the method: as §1

[11] = compound: CC1=C(C=C(C=C1)NC(=O)C2=CC(=CC=C2)N(C)C)NC(=O)C3=CC=C(C=C3)O
Summary of the method: as §1

erlotinib = compound: C#Cc1cccc(Nc2ncnc3cc(OCCOC)c(OCCOC)cc23)c1 [erlotinib]
Summary of the method: as §1

[12] = compound: C1=CC(=CC=C1C2=NC3=C(N2)C=C(C=C3)C(=O)N)OC4=CC=C(C=C4)Cl
Summary of the method: as §1

[13] = compound: CC(=O)c1cnc2ccc(-c3cc(Cl)c(O)c(Cl)c3)nc2c1N[C@H]1CC[C@H](CN(C)C)CC1
Summary of the method: as §1

[14] = compound: CC(C)C1=C2N=C(C=C(N2N=C1)NCC3=CC=CC=C3)NCCCCCCN
Summary of the method: as §1

[15] = compound: CC1=C(C(CC(=O)N1)C2=CC=C(C=C2)C(F)(F)F)C(=O)NC3=C(C=C4C(=C3)C=NN4)F
Summary of the method: as §1

[16] = compound: CC1=CC=C(C=C1)SC2=C3C=C(SC3=CN=C2)C(=O)N
Summary of the method: as §1

Measured: log2 fold change

FARP1 isoform 2 (UniProt Q9Y4F1)
inactive: [1] 0.043 | [2] 0.019 | [3] 0.095 | [4] 0.088 | [5] -0.057 | [6] -0.02 | [7] 0.054 | IRAK-1-4 Inhibitor I -0.031 | ibrutinib -0.087 | ralimetinib 0.072 | [8] 0.044 | [9] 0.096 | [10] 0.069 | [11] 0.079

FGF13 isoform 3 (UniProt Q92913)
inactive: erlotinib 0.026 | [12] 0 | [3] 0.006 | [4] -0.029 | [6] 0.03 | [7] -0.092 | IRAK-1-4 Inhibitor I 0.026 | ibrutinib -0.013 | [13] -0.016 | ralimetinib 0.019 | [8] -0.057 | [14] 0.001 | [15] -0.011 | [9] 0.001 | [10] -0.008 | [11] 0.145 | [16] -0.007

FBXO11 isoform 5 (UniProt Q86XK2)
inactive: erlotinib 0.177 | [12] 0.237 | [3] -0.075 | [4] 0.008 | IRAK-1-4 Inhibitor I 0.045 | ibrutinib -0.131 | [13] 0.13 | ralimetinib -0.019 | [8] 0.146 | [14] 0.024 | [15] -0.079 | [9] -0.059 | [10] 0.005 | [11] -0.051 | [16] -0.011

Reprinted from the listing (two entries):
FGF13 isoform 3 (UniProt Q92913)
inactive: erlotinib 0.026 | [12] 0 | [3] 0.006 | [4] -0.029 | [6] 0.03 | [7] -0.092 | IRAK-1-4 Inhibitor I 0.026 | ibrutinib -0.013 | [13] -0.016 | ralimetinib 0.019 | [8] -0.057 | [14] 0.001 | [15] -0.011 | [9] 0.001 | [10] -0.008 | [11] 0.145 | [16] -0.007

FBXO11 isoform 5 (UniProt Q86XK2)
inactive: erlotinib 0.177 | [12] 0.237 | [3] -0.075 | [4] 0.008 | IRAK-1-4 Inhibitor I 0.045 | ibrutinib -0.131 | [13] 0.13 | ralimetinib -0.019 | [8] 0.146 | [14] 0.024 | [15] -0.079 | [9] -0.059 | [10] 0.005 | [11] -0.051 | [16] -0.011

(listing goes on)

FANCL isoform 2 (UniProt Q9NW38)
inactive: erlotinib 0.013 | [12] -0.039 | [3] 0.037 | [4] 0.068 | [6] 0.122 | [7] -0.054 | IRAK-1-4 Inhibitor I 0.046 | ibrutinib 0.008 | [13] -0.327 | ralimetinib 0.051 | [8] 0.002 | [14] -0.04 | [15] -0.055 | [9] -0.068 | [10] 0.128 | [11] -0.025 | [16] -0.113

FBXL19 (UniProt Q6PCT2)
inactive: erlotinib -0.072 | [12] -0.1 | [4] 0.128 | IRAK-1-4 Inhibitor I -0.101 | ralimetinib -0.042 | [8] 0.034 | [14] 0.176 | [10] 0.078 | [11] -0.223

FBRS (UniProt J3KNZ9)
inactive: erlotinib 0.012 | [1] -0.088 | [12] 0.1 | [2] -0.153 | [3] 0.087 | [4] -0.003 | [5] 0.01 | [6] 0 | [7] 0.054 | IRAK-1-4 Inhibitor I 0 | ibrutinib -0.044 | ralimetinib 0.033 | [8] 0.052 | [14] -0.026 | [15] 0.068 | [9] -0.056 | [10] -0.115 | [11] -0.046

FKRP (UniProt Q9H9S5)
inactive: erlotinib 0.145 | [1] -0.029 | [12] 0.053 | [2] -0.086 | [4] 0.037 | [5] 0.026 | [6] -0.153 | [7] -0.042 | IRAK-1-4 Inhibitor I -0.034 | [13] 0.114 | ralimetinib -0.042 | [8] -0.015 | [14] -0.1 | [9] -0.086 | [10] 0.05 | [11] -0.017 | [16] 0.028

FAT2 (UniProt Q9NYQ8)
inactive: erlotinib 0.215 | [1] -0.092 | [12] -0.311 | [2] 0.038 | [3] -0.076 | [4] -0.135 | [5] -0.147 | [6] -0.007 | [7] 0.01 | IRAK-1-4 Inhibitor I -0.016 | ibrutinib 0.01 | [13] 0.057 | ralimetinib -0.156 | [8] -0.123 | [14] -0.314 | [15] -0.019 | [10] 0.166 | [11] 0.038 | [16] -0.023

FAM86B2 (UniProt P0C5J1)
inactive: [1] 0.045 | [2] 0.021 | [3] 0.01 | [4] 0.142 | [5] 0.029 | IRAK-1-4 Inhibitor I 0.079 | ibrutinib -0.019 | [13] -0.195 | ralimetinib -0.108 | [8] 0.084 | [15] -0.243 | [11] -0.095 | [16] -0.118

FASTKD1 (UniProt Q53R41)
inactive: erlotinib 0.011 | [1] -0.033 | [12] -0.146 | [2] -0.03 | [4] 0.015 | [5] -0.027 | [6] -0.017 | [7] -0.017 | IRAK-1-4 Inhibitor I -0.028 | ralimetinib 0.035 | [8] -0.114 | [14] 0.018 | [15] 0.009 | [9] -0.021 | [10] 0.026 | [11] 0.065

FBXO44 isoform 2 (UniProt Q9H4M3)
inactive: erlotinib 0.077 | [1] -0.152 | [12] 0.135 | [2] -0.011 | [3] 0.128 | [4] 0.03 | [5] -0.047 | IRAK-1-4 Inhibitor I -0.104 | ibrutinib 0.09 | [13] 0.064 | ralimetinib -0.124 | [8] 0.134 | [14] -0.073 | [15] 0.074 | [9] 0.048 | [11] 0.112 | [16] 0.04

FARP2 (UniProt O94887)
inactive: erlotinib -0.005 | [12] -0.125 | [3] -0.155 | [4] -0.135 | IRAK-1-4 Inhibitor I -0.033 | ibrutinib 0.004 | [13] -0.076 | ralimetinib 0.037 | [8] 0.003 | [14] -0.02 | [15] 0.065 | [9] -0.155 | [10] 0.02 | [11] -0.047 | [16] 0.017
